{"source": "patent US20150284430A1", "about": "“APPLICATION OF SP PEPTIDE OR DERIVATIVE THEREOF IN PREPARING MEDICINES FOR PREVENTING OR TREATING ASTHMA” (priority 2012, published 2015)", "key": {"[1]": {"system": "IL-13", "test": "IL-13 level in serum and lung tissue homogenates (ELISA), ovalbumin/aluminium hydroxide allergic asthma mouse model", "format": "in vivo", "settings": "for IL-13 level in lung tissue homogenates / IL-13 level in serums: vs model group"}, "[2]": {"system": "IL-4", "test": "IL-4 level in serum and lung tissue homogenates (ELISA), ovalbumin/aluminium hydroxide allergic asthma mouse model", "format": "in vivo", "settings": "for IL-14 level in lung tissue homogenates / IL-14 level in serums: vs model group"}, "[3]": {"system": "allergic asthma mouse model induced by a combination of ovalbumin and adjuvant", "test": "Lung tissue histopathologic examination and lesion score, ovalbumin/aluminium hydroxide allergic asthma mouse model", "format": "in vivo", "settings": "for overall score of lung tissue lesion level (FIG. 3): rank-sum test vs model group", "method": "Preparation of sensitized liquid: prepare in a proportion of dissolving 10 ug ovalbumin and 2 mg aluminium hydroxide in 0.5 ml physiological saline, and use it right after being prepared.\nOn day 1, day 7 and day 14, the mice of all groups (the model group, the preventive administration groups, the treatment administration groups, and the positive medicines group) apart from the blank control group are injected intraperitoneally with 0.5 ml freshly prepared sensitized liquid. The blank control group is injected intraperitoneally with an equal volume of physiological saline.\nSince day 21 (i.e., starting from week 4), the mice of all groups apart from the blank control group are placed in a 16 L closed container every fourth days, make the mice inhale 1 wt % ovalbumin physiological saline by ultrasonic nebulization, with an inhalation duration of 25 min/d and a nebulization flow rate of 3 ml/min, for twice a week to induce asthma, and the process continues until week 19. The mice in the blank control group undergo nebulization intraperitoneally with an equal volume of physiological saline.\nParticularly, the preventive administration group (the SP peptide high-dosage preventive administration group, SP peptide medium-dosage preventive administration group, and SP peptide low-dosage preventive administration group) are injected subcutaneously a corresponding dosage of SP peptide at right hindlimb of the mouse, one hour after the first intraperitoneal injection of the sensitized liquid (i.e., from day 1), and are administered every other day for 15 times in total.\nFrom the same day, the mice in the treatment administration groups (SP high-dosage treatment administration group, SP medium-dosage treatment administration group, and SP low-dosage treatment administration group) are injected subcutaneously with a corresponding dosage of SP peptide at right hindlimb thereof, and are administered every other day for 15 times in total. From the same day, the mice in the positive medicines group are injected intraperitoneally with 0.1 ml dexamethasone injection per 10 g weight of a mouse, and are administered every other day for 15 times in total.\nLung tissue lesions (including bronchia and perivascular interstitial edema, alveolar wall congestion or emphysema) are marked respectively as 1, 2, 3 and 4 in ascending order of severity, 0 stands for no obvious lesions, and 0.5 for extreme mild lesions. All scores are accumulated, and a mean score (±SD) of each mouse in each group is calculated, and a higher score indicates a more severe level of lesions. Perform a rank-sum test to pathological score results to compare the two samples, and compare with the model group.\n2.2 Data Processing: perform data processing to all data, rank-sum test to pathological score, t-test to the other data, and make statistics to analytic results."}, "[4]": {"system": "TNF-α", "settings": "patient with pneumonia; cited from earlier work"}, "[5]": {"system": "r-IFN, IL-4 and IL-10", "settings": "patient with hepatitis C; cited from earlier work"}, "[6]": {"settings": "all high-/medium-/low-dosage preventive and treatment administration groups, compared to the model group (summary statement)"}, "[7]": {"settings": "high-dosage preventive administration, 250 μg/kg·d s.c. every other day x15 from day 1"}, "[8]": {"settings": "high-dosage treatment administration, 250 μg/kg·d s.c. every other day x15 from week 15"}, "[9]": {"settings": "low-dosage treatment administration, 62.5 μg/kg·d s.c. every other day x15 from week 15"}, "[10]": {"settings": "medium-dosage preventive administration, 125 μg/kg·d s.c. every other day x15 from day 1"}, "[11]": {"settings": "medium-dosage treatment administration, 125 μg/kg·d s.c. every other day x15 from week 15"}, "[12]": {"settings": "high-dosage preventive administration, 250 μg/kg·d s.c."}, "[13]": {"settings": "high-dosage treatment administration, 250 μg/kg·d s.c."}, "[14]": {"settings": "low-dosage preventive administration, 62.5 μg/kg·d s.c."}, "[15]": {"settings": "low-dosage treatment administration, 62.5 μg/kg·d s.c."}, "[16]": {"settings": "medium-dosage preventive administration, 125 μg/kg·d s.c."}, "[17]": {"settings": "medium-dosage treatment administration, 125 μg/kg·d s.c."}}, "note": "At least one peptide structure holds a part that was inferred or is arguable (an end, a ring closure or a residue). Where no end group is shown, it is not given here."}
{"substance": "GQTYTSG [SP peptide, Gly-Gln-Thr-Tyr-Thr-Ser-Gly]", "values": [{"measurement": "IL-13 level", "setting": "[1]; [6]", "value": "significantly reduced"}, {"measurement": "IL-13 level in lung tissue homogenates", "setting": "[1]; [7]", "value": "significantly decreased"}, {"measurement": "IL-13 level in serums", "setting": "[1]; [7]", "value": "significantly decreased"}, {"measurement": "IL-13 level in lung tissue homogenates", "setting": "[1]; [8]", "value": "significantly decreased"}, {"measurement": "IL-13 level in serums", "setting": "[1]; [8]", "value": "significantly decreased"}, {"measurement": "IL-13 level in lung tissue homogenates", "setting": "[1]; [9]", "value": "significantly decreased"}, {"measurement": "IL-13 level in serums", "setting": "[1]; [9]", "value": "significantly decreased"}, {"measurement": "IL-13 level in lung tissue homogenates", "setting": "[1]; [10]", "value": "significantly decreased"}, {"measurement": "IL-13 level in serums", "setting": "[1]; [10]", "value": "significantly decreased"}, {"measurement": "IL-13 level in lung tissue homogenates", "setting": "[1]; [11]", "value": "significantly decreased"}, {"measurement": "IL-13 level in serums", "setting": "[1]; [11]", "value": "significantly decreased"}, {"measurement": "IL-4 level", "setting": "[2]; [6]", "value": "significantly reduced"}, {"measurement": "IL-14 level in lung tissue homogenates", "setting": "[2]; [7]", "value": "significantly decreased"}, {"measurement": "IL-14 level in serums", "setting": "[2]; [7]", "value": "significantly decreased"}, {"measurement": "IL-14 level in lung tissue homogenates", "setting": "[2]; [8]", "value": "significantly decreased"}, {"measurement": "IL-14 level in serums", "setting": "[2]; [8]", "value": "significantly decreased"}, {"measurement": "IL-14 level in lung tissue homogenates", "setting": "[2]; [9]", "value": "significantly decreased"}, {"measurement": "IL-14 level in serums", "setting": "[2]; [9]", "value": "significantly decreased"}, {"measurement": "IL-14 level in lung tissue homogenates", "setting": "[2]; [10]", "value": "significantly decreased"}, {"measurement": "IL-14 level in serums", "setting": "[2]; [10]", "value": "significantly decreased"}, {"measurement": "IL-14 level in lung tissue homogenates", "setting": "[2]; [11]", "value": "significantly decreased"}, {"measurement": "IL-14 level in serums", "setting": "[2]; [11]", "value": "significantly decreased"}, {"measurement": "bronchia and perivascular interstitial edema, edematous inflammatory cells infiltration, alveolar wall congestion or emphysema", "setting": "[3]; after administering for prevention or treatment (overall statement, FIG. 3)", "value": "significantly reduced"}, {"measurement": "lung tissue lesion level", "setting": "[3]; [6]", "value": "significantly alleviated"}, {"measurement": "asthma modelling at pathological check", "setting": "[3]; day 1 of week 15, five mice per group, preventive administration groups", "value": "all asthma groups apart from the preventive administration groups are successfully modeled"}, {"measurement": "inflammatory cells infiltration (histopathology, FIG. 9)", "setting": "[3]; [12]", "value": "infiltration with a few inflammatory cells around bronchus"}, {"measurement": "pulmonary interstitial edema (histopathology, FIG. 9)", "setting": "[3]; [12]", "value": "mild pulmonary interstitial edema"}, {"measurement": "overall score of lung tissue lesion level (FIG. 3)", "setting": "[3]; [12]", "value": "highly significant differences (** P<0.01)"}, {"measurement": "inflammatory cells infiltration (histopathology, FIG. 12)", "setting": "[3]; [13]", "value": "infiltration with a few inflammatory cells"}, {"measurement": "pulmonary interstitial edema (histopathology, FIG. 12)", "setting": "[3]; [13]", "value": "mild pulmonary interstitial edema"}, {"measurement": "overall score of lung tissue lesion level (FIG. 3)", "setting": "[3]; [13]", "value": "highly significant differences (** P<0.01)"}, {"measurement": "inflammatory cells infiltration (histopathology, FIG. 7)", "setting": "[3]; [14]", "value": "infiltration with greater inflammatory cells"}, {"measurement": "pulmonary interstitial edema (histopathology, FIG. 7)", "setting": "[3]; [14]", "value": "moderate or severe pulmonary interstitial edema"}, {"measurement": "overall score of lung tissue lesion level (FIG. 3)", "setting": "[3]; [14]", "value": "significant differences (* P<0.05)"}, {"measurement": "inflammatory cells infiltration (histopathology, FIG. 10)", "setting": "[3]; [15]", "value": "infiltration with greater inflammatory cells"}, {"measurement": "pulmonary interstitial edema (histopathology, FIG. 10)", "setting": "[3]; [15]", "value": "moderate intrapulmonary small perivascular and peribronchial pulmonary interstitial edema"}, {"measurement": "overall score of lung tissue lesion level (FIG. 3)", "setting": "[3]; [15]", "value": "significant differences (* P<0.05)"}, {"measurement": "inflammatory cells infiltration (histopathology, FIG. 8)", "setting": "[3]; [16]", "value": "infiltration with a few inflammatory cells"}, {"measurement": "pulmonary interstitial edema (histopathology, FIG. 8)", "setting": "[3]; [16]", "value": "moderate or mild pulmonary interstitial edema"}, {"measurement": "overall score of lung tissue lesion level (FIG. 3)", "setting": "[3]; [16]", "value": "significant differences (* P<0.05)"}, {"measurement": "alveolar wall congestion or emphysema (histopathology, FIG. 11)", "setting": "[3]; [17]", "value": "congestion around alveolar walls, alveoli are in an emphysematous state"}, {"measurement": "inflammatory cells infiltration (histopathology, FIG. 11)", "setting": "[3]; [17]", "value": "infiltration with many inflammatory cells"}, {"measurement": "pulmonary interstitial edema (histopathology, FIG. 11)", "setting": "[3]; [17]", "value": "mild intrapulmonary small perivascular and peribronchial pulmonary interstitial edema"}, {"measurement": "overall score of lung tissue lesion level (FIG. 3)", "setting": "[3]; [17]", "value": "highly significant differences (** P<0.01)"}, {"measurement": "TNF-α level", "setting": "[4]", "value": "reducing TNF-α level"}, {"measurement": "cytokine IL-4 level", "setting": "[5]", "value": "promoting the cytokine IL-4 level"}]}
